PubChem BioAssay AID1259254 – NCATS, 2017
Shown is one part, drawn at random, of about 59,000 reagents tested. About 1,550 of all reagents (2.6%) were called active. 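G2 share is only a proxy for re-replication; each gene was hit by three separate siRNAs, and active genes were retested.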 The raw values are shown without normalisation. Reagents against one gene are numbered here. The record does not give: the amount of reagent.

- Screen: 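Finding genes that stop cells copying their DNA twice in one cycle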 (primary screen)
- System: human HCT116 colorectal cancer cells
- Reagent: single siRNA against human genes
- Time to read-out: 3 days
- Detection: 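Nuclei stained with Hoechst and imaged; cell-cycle phase assigned by DNA content; G2 share scaled per plate, non-targeting siRNA 0%, GMNN siRNA 100%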
- Direction: G2 robust z-score and G2 cells, % of GMNN control: higher = more G2 cells, more excess DNA replication; raw share of cells in G2: higher = larger share of cells with G2 DNA content
- Active means: 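Active siRNAs have a G2 robust z of 5 or more median absolute deviations over the median, which in these data means about 38% or higher of GMNN control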

The opening 6 records, ahead of the listing:
Gene	siRNA no.	G2 robust z-score	G2 cells, % of GMNN control	raw share of cells in G2 (%)	Call
MINPP1 (GeneID 9562)	1	2.01	17.1	10.4	inactive
MINPP1 (GeneID 9562)	2	-0.274	1.04	4.62	inactive
MINPP1 (GeneID 9562)	3	-0.834	-2.9	2.62	inactive
LOC100505502 (GeneID 100505502)	1	-0.403	0.133	3.05	inactive
LOC100505502 (GeneID 100505502)	2	-0.364	0.404	4.42	inactive
LOC100505502 (GeneID 100505502)	3	-0.508	-0.609	3.12	inactive

Main list, from the start:
Gene	siRNA no.	G2 robust z-score	G2 cells, % of GMNN control	raw share of cells in G2 (%)	Call
MINPP1 (GeneID 9562)	1	2.01	17.1	10.4	inactive
MINPP1 (GeneID 9562)	2	-0.274	1.04	4.62	inactive
MINPP1 (GeneID 9562)	3	-0.834	-2.9	2.62	inactive
LOC100505502 (GeneID 100505502)	1	-0.403	0.133	3.05	inactive
LOC100505502 (GeneID 100505502)	2	-0.364	0.404	4.42	inactive
LOC100505502 (GeneID 100505502)	3	-0.508	-0.609	3.12	inactive
APPL2 (GeneID 55198)	1	-0.304	0.831	4.68	inactive
APPL2 (GeneID 55198)	2	1.8	15.7	13.3	inactive
APPL2 (GeneID 55198)	3	-0.438	-0.114	4.4	inactive
LCE1B (GeneID 353132)	1	-0.105	2.23	4.75	inactive
LCE1B (GeneID 353132)	2	1.01	10.1	7.67	inactive
LCE1B (GeneID 353132)	3	0.468	6.26	6.71	inactive
SAMSN1 (GeneID 64092)	1	1.34	12.4	9.96	inactive
SAMSN1 (GeneID 64092)	2	-0.23	1.35	5.17	inactive
SAMSN1 (GeneID 64092)	3	0.88	9.16	8.71	inactive
SAMSN1 (GeneID 64092)	4	-1.33	-6.39	1.01	inactive
SAMSN1 (GeneID 64092)	5	5.82	43.9	18.8	active
SAMSN1 (GeneID 64092)	6	-0.352	0.491	3.62	inactive
ASIC2 (GeneID 40)	1	6.69	50	23.5	active
ASIC2 (GeneID 40)	2	-1.15	-5.1	3.06	inactive
ASIC2 (GeneID 40)	3	0.662	7.62	7.35	inactive
KIR2DL5B (GeneID 553128)	1	0.0596	3.39	7.37	inactive
KIR2DL5B (GeneID 553128)	2	-0.456	-0.244	4.86	inactive
KIR2DL5B (GeneID 553128)	3	2.6	21.3	12.1	inactive
MYO1G (GeneID 64005)	1	3.81	29.8	18	inactive
MYO1G (GeneID 64005)	2	-0.442	-0.144	4.17	inactive
MYO1G (GeneID 64005)	3	-0.791	-2.6	3.43	inactive
CCHCR1 (GeneID 54535)	1	0.248	4.71	5.29	inactive
CCHCR1 (GeneID 54535)	2	1.59	14.1	10.2	inactive
CCHCR1 (GeneID 54535)	3	1.11	10.8	6.75	inactive
ABHD14B (GeneID 84836)	1	2.84	23	13.3	inactive
ABHD14B (GeneID 84836)	2	1.46	13.2	8.99	inactive
ABHD14B (GeneID 84836)	3	-1.35	-6.52	2.71	inactive
COL4A5 (GeneID 1287)	1	0.783	8.48	9.28	inactive
COL4A5 (GeneID 1287)	2	0.807	8.65	7.25	inactive
COL4A5 (GeneID 1287)	3	-0.374	0.334	3.65	inactive
GSTA1 (GeneID 2938)	1	-0.0442	2.66	4.6	inactive
GSTA1 (GeneID 2938)	2	-0.83	-2.87	4.17	inactive
GSTA1 (GeneID 2938)	3	0.24	4.65	6.93	inactive
PGAP4 (GeneID 84302)	1	-0.793	-2.61	3.24	inactive
PGAP4 (GeneID 84302)	2	1.13	10.9	6.7	inactive
PGAP4 (GeneID 84302)	3	0.248	4.71	3.83	inactive
RSAD1 (GeneID 55316)	1	4.97	37.9	18	inactive
RSAD1 (GeneID 55316)	2	3.94	30.7	17.1	inactive
RSAD1 (GeneID 55316)	3	6.25	46.9	27	active
ARHGAP15 (GeneID 55843)	1	-0.369	0.373	4.67	inactive
ARHGAP15 (GeneID 55843)	2	0.838	8.87	7.81	inactive
ARHGAP15 (GeneID 55843)	3	-0.849	-3.01	2.18	inactive
